Data from PubChem BioAssay AID1347423 (Functional Genomics Laboratory (NCATS/FGL), 2020).
Among all 52,000 sequences or so, about 210 (0.4%) were called active.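 Rule for the calls: active = gene whose silencing raises cell survival under the drug, median off-target-corrected z-score across its silencing RNAs 2 or more; inactive = the rest.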 The list shows a part of the results.

Test: Resistance to Poly (ADP-Ribose) Polymerase inhibitor: Gene Identification via Genome-wide siRNA Screen
Conditions: mouse BRCA2 R2336H ES cells, olaparib, CellTiter-Glo viability; hits give high values
Method in brief: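 Genome-wide siRNA screen (3 siRNAs/gene, 20 nM) in mouse ES cells carrying hypomorphic BRCA2 R2336H; olaparib 500 nM added 48 h post-transfection, CellTiter-Glo viability 72 h later. Normalized to plate-median negative control; MAD z-scores, gene median, seed-adjusted.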
In the case of CGACCAGAGUUAUCUGAAUTT against Ctf2, the z-score was inactive: 0.21. With GCACAGUGUAACUUAGGGCTT against Cenpb the z-score was inactive: 1.48. For “GGGUGUGCUUCAUAUCAAATT against 2210407C18Rik”, the z-score was inactive: 0.0134. With GCUCACAAGAUGGUUCGGGTT against Rab3il1 the z-score was inactive: 0.678. For “GGUCUCCUACUUCCACUGCTT against 4833416I09Rik”, the z-score was inactive: -0.794. In the case of CCGACCUGAAGACCUUACATT against Tmem18, the z-score was inactive: 0.226. With “GGCGAAAUCUGCUAGAGUATT against 2700055K07Rik” the z-score was inactive: 0.54. In the case of GGAAUACAAAAAUUACCUGTT against Bdnf, the z-score was inactive: 0.816. For GGAGAGGAAGAUGAUAAAATT against Cdx4, the z-score was inactive: -1.79. In the case of GCGAUGAAGAGAACUUAAGTT against Pts, the z-score was inactive: 0.00581. For “GCGAUCGCCAAAAUCCGGUTT against 2810004N20Rik”, the z-score was inactive: 0.542. In the case of GCAUUUUAGCCUUCGGACATT against C9, the z-score was inactive: 0.183. In the case of GCUACACAACUCUCCAUUATT against Crtam, the z-score was inactive: -0.882. In the case of GCACAUACAGCUUAACAAATT against Nktr, the z-score was inactive: 0.455. With “GGCAGUGAGUGAGUCACAGTT against 4932411E22Rik” the z-score was inactive: -2.24. With AGUCAUGAAGCAAAUGAUUTT against Olfr900 the z-score was inactive: -0.439. With CCUAUACAUGCUACUGAACTT against Itga9 the z-score was inactive: -0.599. In the case of GGCCAAAUAACCACUGUGGTT against Lsm10, the z-score was inactive: -0.183. In the case of GGUUCUUUUAUGGAUGACATT against Prkaa2, the z-score was inactive: -1.15. With GGUAGUAAGUGGCAGUCCUTT against Zic5 the z-score was inactive: -1.04. In the case of GGAGGUUUUGAAAUAGUCATT against Rbbp2, the z-score was inactive: 1.32. With GCCGACAGCUCCUUUAACUTT against Scamp4 the z-score was inactive: -0.545. In the case of GGACCUGGAGAAAGUCAAGTT against Pacsin1, the z-score was inactive: 0.925. In the case of “GGAGCUCAAAGACAAAGAATT against 4921528I01Rik”, the z-score was inactive: 0.392. For CCCUAUGUCCGUUCCAAGGTT against Rpl18, the z-score was inactive: -1.23. For GCCAAGGUAGAAUCUUGCCTT against Gsdmdc1, the z-score was inactive: 1.22. With GAACCAGACUAAGAACUGUTT against Cox6b the z-score was inactive: 0.962. With “CGGCCAUUAACUCAUGCAATT against 1110021N19Rik” the z-score was inactive: 0.567. In the case of GCAAUAAGCACCUUCCAUUTT against Gltp, the z-score was inactive: -0.47. In the case of CGUGGGCCUAUGCUUGUCATT against Tsc1, the z-score was inactive: -0.641. In the case of GGAUUUCAAGGGAAUUUGATT against Wbp4, the z-score was inactive: 0.206. With GCACCAGCUCUUUUGAUAUTT against BC016226 the z-score was inactive: -0.716. In the case of GCAAGCUUUUUUGAAGCAGTT against Ppil4, the z-score was inactive: -1.76. In the case of GGCACGUGAUAAAGGGUUCTT against Pcdha7, the z-score was inactive: 2.05. With GCUCUUCAAUAAUAUGUCATT against Cdh26 the z-score was inactive: 0.301. For GGUUUCUUCAUUUGUUUGCTT against Syt2, the z-score was inactive: -1.09. In the case of GGACUGAAAUGUCUUAGACTT against Sepw1, the z-score was inactive: -0.0243. For GGCCUAGACAUACAUGAAATT against Bnip3l, the z-score was inactive: 2.36. In the case of GGCCCAAACCUUAAAGUCCTT against Smyd4, the z-score was inactive: -0.296. With GCAGCUGAAUACAGUCUGCTT against Nalp9c the z-score was inactive: -0.0273. In the case of “GCGCAGAUACCUGUUUGUUTT against 1110020A09Rik”, the z-score was inactive: 0.626. For GGAUUCAGAGAAAGAAAACTT against Azi2, the z-score was inactive: 0.0998. For GCCCGAUGACACGAGGAUUTT against Zfp39, the z-score was inactive: 1.33. For CCUAUGGCCGACGAUCAUGTT against BC034834, the z-score was inactive: -1.38. In the case of GCACCUGGAGUACAUAAAATT against Sh2d1a, the z-score was inactive: -1.85. In the case of GGAACAAGCCAGGCACAUATT against Mrpplf4, the z-score was inactive: -0.227. For GGAAGACUUGAGAAAUCACTT against Coro1c, the z-score was inactive: 1.8. In the case of “GGCUUAUGACGAAUUAGUCTT against D130059P03Rik”, the z-score was inactive: 0.338. With GGAAACGAUGACAUUUCAATT against Pnrc2 the z-score was inactive: 0.254. In the case of CGAGCAACCACUGAUCAAGTT against Grap, the z-score was inactive: -0.253. For GGACUCAGAUAUCUUUCAGTT against Adck1, the z-score was inactive: -0.717. For CCUCUUCGGGAAAAUUCUATT against Dao1, the z-score was inactive: -0.527. In the case of GCUUCGGCAUCGAUCAGAUTT against Tlx2, the z-score was inactive: -0.874. In the case of GGCACACUUGAGAAGACACTT against Cul5, the z-score was inactive: 2.51. In the case of GGUCCAGUGAAAUAAUAUCTT against Orc3l, the z-score was inactive: 0.619. In the case of CCAGCAAACUGUUGAUCCCTT against Oit3, the z-score was inactive: 0.739. For GGAAGAAAGAUUCUCACUGTT against Entpd3, the z-score was inactive: -0.758. In the case of GGUGAAAGACCAAAGAAACTT against Gpatc1, the z-score was inactive: -1.15. With “GAGCAGAGCCAAAUCAAAGTT against 1700023M09Rik” the z-score was inactive: -0.566. With GGCCCUUUGACCUCAAGAATT against Myh7 the z-score was inactive: 0.0809. For GGACAAACUAUGAAAACAGTT against Ube2v2, the z-score was inactive: -0.794. In the case of GCUGGGCUUUCCAAGUUACTT against Tomm20, the z-score was inactive: 0.738. In the case of GGGACUUUAAGAAAAACUATT against Sparcl1, the z-score was inactive: 0.688. For GGAGGACUACAGAAAGCCUTT against Olfr1167, the z-score was inactive: 1.62. In the case of GGAGGAUGAUGAGGAGGAUTT against Ppp1r1b, the z-score was inactive: -1.2. In the case of “GCCUAUUGGCCUGAUAUGUTT against A530099J19Rik”, the z-score was inactive: 1.37. In the case of CCUGAUCAUGUUGAAGGAATT against Ktn1, the z-score was inactive: -1.17. With GGACUACUGAAUUCUUUUATT against Pvrl2 the z-score was inactive: 1.31. In the case of GCAUUAACUGCAUUGAGCATT against Nov, the z-score was inactive: 0.365. For GGAAAUCCUCAGACAAAUGTT against Pdc, the z-score was inactive: -0.4. With GGGAAUGAGCUUUUGCCUATT against Akr1c18 the z-score was inactive: 2.19. For GGGAAGAUGUGAGAAACUGTT against Xpnpep2, the z-score was inactive: 0.0956. For GGUUGAAUCAGAAAAAUUCTT against Gbp4, the z-score was inactive: 0.75. With GGCGAUCAGAGUUCAGGUATT against Hps1 the z-score was inactive: 1.4. In the case of “GGAGAAGGUUGCUGUAAAATT against 1700012A03Rik”, the z-score was inactive: -0.567. In the case of GCUAAUCCCAACAUGCCUGTT against Pum1, the z-score was inactive: -0.399. In the case of “GGAGUACAGAAGUAAUCUCTT against 2310065K24Rik”, the z-score was inactive: -0.302. For GGAUAUCAGUGAUGACCAUTT against Uckl1, the z-score was inactive: 1.44. With GCCUUCACAGAAGAAGCAUTT against Doc2a the z-score was inactive: -0.689. For GGUUGACUAUACUGAAAAGTT against Bat2, the z-score was inactive: 0.649. In the case of GGUCCUGUUUCCAAGAGUATT against Cnih, the z-score was inactive: 0.0606. With GCUUUUUAGAAUCUCCGAATT against Sel1h the z-score was inactive: 0.168. For GGAAACUGAGACAGGCCUUTT against Pgls, the z-score was inactive: 0.111. In the case of “GCGAUUCGUCUUCGAGUUCTT against 4930430E16Rik”, the z-score was inactive: -0.275. For GGCUCUGCGCAUCACCAAUTT against Nfasc, the z-score was inactive: 1.44. With CGUGGUAGUGAAAAUUGAGTT against Xbp1 the z-score was inactive: -0.285. In the case of “GGAUUCAUCAGACAUUAAGTT against 4930503L19Rik”, the z-score was inactive: 0.595. In the case of CCCGGGUGCAAAACAUUCATT against Mlf1ip, the z-score was inactive: -1.34. With GGAUAACACCACCAACUAUTT against Akap8l the z-score was inactive: 1. In the case of CGAUGUUGAGGGAUUAUCUTT against BC057893, the z-score was inactive: 0.475. For GCUUCAGCUCAACUCCGCATT against Vps33a, the z-score was inactive: 1.83. In the case of GGAAGUAAUCAAUUUGGUGTT against Epm2aip1, the z-score was inactive: 1.48. With GCAGAAUGAGUUCAGACGATT against Mgmt the z-score was inactive: -1.94. In the case of CCUAUGGGUGUCUAUACCUTT against AI649392, the z-score was inactive: 1.18. For GGAGAAAAGGUGUUUCGACTT against Ddefl1, the z-score was inactive: 0.0769. With GCAAAUAUAUGUUUGGCUGTT against Snap25 the z-score was inactive: 0.769. In the case of “GCAAUGGACACGAUUCUUATT against 1810036I24Rik”, the z-score was inactive: 0.88. In the case of GGUCCAUCAUGAGGUCUCUTT against Phkg2, the z-score was inactive: -0.13. In the case of GGCCUUGUAUCUCUUUACATT against Hdgf, the z-score was inactive: 0.107. For “GGUGAUGGAGAAGAGAAGATT against 3110001A13Rik”, the z-score was inactive: -2.6. In the case of GGAGUCUUCUCAAUUUGACTT against Olfr1105, the z-score was inactive: -0.434. With GCUCUUAGGACAGACAGACTT against Dnajb12 the z-score was inactive: -0.203. With “CCACUGAACUUAACCUUGGTT against B930041F14Rik” the z-score was inactive: 1.2. For GGUUGGCCUAAUAGUGCAUTT against Cbr1, the z-score was inactive: 0.445. With CCAUAUCCUUAACCUUAGGTT against Gdi1 the z-score was inactive: 0.299.
